Results from patent US20240190986A1.
Results are given in words; binding and its absence hold for the method and conditions named. Some entries that bind do so weakly or less than the wild type.

The chains behind the UniProt entries cited, without tags or fusion partners. Where a name states a change or a piece, a line headed by the entry shows the natural chain unless it says otherwise. A line that says so, or that is headed by a name, gives the form on record, which may keep a tag or linker.
MSLN.Fc protein (Q13421, form named): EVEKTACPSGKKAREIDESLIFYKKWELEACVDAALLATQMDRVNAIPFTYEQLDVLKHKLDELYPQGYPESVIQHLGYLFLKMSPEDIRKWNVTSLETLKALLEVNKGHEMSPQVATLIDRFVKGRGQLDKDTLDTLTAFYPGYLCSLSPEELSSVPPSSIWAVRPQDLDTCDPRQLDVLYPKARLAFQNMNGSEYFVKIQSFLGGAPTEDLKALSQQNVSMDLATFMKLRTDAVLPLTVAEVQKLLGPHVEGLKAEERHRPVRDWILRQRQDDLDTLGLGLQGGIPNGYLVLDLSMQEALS
MSLN·His protein (Q13421, form named): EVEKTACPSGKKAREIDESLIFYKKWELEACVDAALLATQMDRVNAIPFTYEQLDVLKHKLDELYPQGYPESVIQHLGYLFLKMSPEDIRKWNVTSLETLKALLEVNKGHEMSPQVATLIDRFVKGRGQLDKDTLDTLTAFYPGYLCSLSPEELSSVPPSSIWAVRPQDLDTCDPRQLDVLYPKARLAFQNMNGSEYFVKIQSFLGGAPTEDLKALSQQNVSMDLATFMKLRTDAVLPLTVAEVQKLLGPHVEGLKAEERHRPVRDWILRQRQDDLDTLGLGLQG

B1: M129 (VHH)
VHH: QVQLVESGGGSAQAGGSLILSCVASANLFTIDALGWYRQAPGPKRELVAAISSGGNKYYADAVKGRFTISRDTLTKTMWLQMNNLKPEDTAMYYCAAEDYGLGQRSWGMGTQVTVSS
B2: M210 (VHH)
VHH: QVQLVESGGGLVQPGGSLRLSCAASGITLDNYAIAWFRQAPGKKREGVSCISSNGNTYYQPSVKGRFTIARDNAKNTVYLHMNNLNPEDTAVYYCQVGQFSSSTTPVQAMSVMSLYADWGQGTQVTVSS
B3: M012 (VHH)
VHH: QVQLVESGGDLVQTGGSLRLSCVVSGSTFAINAMGWYRQAPGKERELVAAISSGGDSTHYADDVKGRFTISRDNAENTMYLQMKSLKPEDTAVYVCNARGCRDFHNPQALCVLRDYWGQGTQVTVSS
B4: M050 (VHH)
VHH: EVQLQESGGGLVQAGGSLRLSCAASGAVSSINAMGWYRQTPEKVRKLVATMGSGGNTYYADSVKGRFTISRDYAKNTVALQMNNLIPEDTAVYYCAADKFGADIHEVDYWGKGTLVTVSS
B5: M126 (VHH)
VHH: EVQLVESGGGWVQSGGSLRLACAASGDSFGLNVVGWYRLAPDKQRELVASIGNGGRTTDYADSVKGRFTISSDNAKNTVFLQMNDLKPEDTAMYYCHLRVSVTEGYWGQGTQVTVSS
B6: M005 (VHH)
VHH: EVQLVESGGGWVQSGGSLRLACAASGSSFGLNVVGWYRQAPDKQRELVASIGNGGRTTDYADSVKGRFTISSDNAKNTVFLQMNDLKPEDTAVYYCHLRASVTKGYWGQGTQVTVSS
B7: M044 (VHH)
VHH: QVQVVESGGGFVQAGGSLRLSCAASTPIISIAYMGWYRQISEKERQLVATINSGGKTYYADSVKGRFTISRDNAKNTLYLQMNMLKPEDTGMYYCAASNKDYNDYDPDWGQGTQVTVSS
B8: M156 (VHH)
VHH: QVQLVESGGGLVQAGGSLRLSCAVSGISFEYYAIGWFRQAPGKEREAVSCTTSGTTSGGGVTDYADSLKGRFTISRDVAKNTVYLQMNNLTPEDTAVYYCAADIHCRGYVLFVPSDFGNWGQGTQVTVSS
B9: M224 (VHH)
VHH: QVQLVESGGGLVQPGGSLRLSCAASGFTFHYYAIGWFRQAPGKEREGVSCISSSGDSTWFSDSVKGRFTVSRDNAKNIVHLQMNNLKPEDTAVYYCAGTTRSGYVCYDAEPYDSWGQGTQVTVSS
B10: M197 (VHH)
VHH: EVQLVESGGGLVQAGGSLRLSCAASGSHFGLNVVGWYRQAPGKQRELVASIGNSGRTTDYADSVKGRFTISKDNAQNTIYLQMNNLKPEDTAMYRCHLRVSVERGYWGQGTQVTVSS
B11: M032 (VHH)
VHH: EVQLVESGGGSVQAGGSLKISCAASGSVIDIGAMGWYRHITEKERKLVATINAGGNTYYADSVKGRFTISRDNAKYTVYLQMNSLKPEDTAMYYCAAEDINYTGTEAYYWGQGTQVTVSS
B12: M169 (VHH)
VHH: EVQLVESGGGTVQPGESLRLSCEASGAVSTINAMGWYRQTPEMRKLVATMGSGGNTYYADSVKGRFTISRDFAGNTVDLQMNDLKPEDTGVYFCAADKFGADIKEVAYWGKGTLVTVSS
B13: M004 (VHH)
VHH: EVQLVESGGGLVQAGGSLRLSCAASESISSIAYMGWYRRISEKERNLVATISSTGSTYYADSVKGRFTISRDNAKNTMYLQMNRLKPEDTAIYYCAASNKAYNDYDPDWGQGTQVTVSS
B14: M182 (VHH)
VHH: QVQLVESGGGSVQAGGSLTLSCAASGAVSSINAMGWYRQTPEKVRQLVATMGSGGNTYYAASVKGRFTISRDYAKNTVALQMNHLLPEDTAVYYCAADRFGADIREVDYWGKGTQVTVSS
B15: M2339 (VHH)
VHH: QLQLGASGGGLVQPGGSLRLSCALSGFTLRELDEFAIGWFRQAPGKEREGVSCISGTGGITHYADSVKGRFTISRDIAKTTVYLQMNSLNSEDTAVYYCAADERCTDRLIRPPTYWGQGTQVTVSS

What follows are binders tested against MSLN.Fc protein (human) (UniProt Q13421) (assay: ELISA, antigen coated, TG1 supernatant).

binding, binds:
B1
B2
B3
B4
B5
B6
B7
B8
B9
B10
B11
B12
B13
B14

Each binder was assayed against MSLN·His protein (human) (UniProt Q13421) (assay: ELISA, antigen coated, TG1 supernatant).

binding, binds:
B15

What follows are binders tested against MSLN·His protein (human) (UniProt Q13421) (assay: SPR (Biacore T200), MSLN-His amine-coupled to a CM5 chip, antibody injected to saturation).

binding, binds:
B7

Each binder was assayed against MSLN·His protein (human) (UniProt Q13421) (assay: SPR (Biacore T200), MSLN-His amine-coupled to a CM5 chip, M044 injected as second antibody after YP218).

binding, binds:
B7
